± gives the standard deviation of the averaged measurements. This is a selection; strong and weak results do not stand in their true shares. Most values lie at the level of the controls, where differences are scatter.
Compound: Nc1ncnc2c1ncn2[C@@H]1O[C@H](COP(=O)(O)OP(=O)(O)OP(=O)(O)O)[C@@H](O)[C@H]1O [adenosine triphosphate]
Test: NP40-soluble protein abundance relative to vehicle (solubility fold change) (ratio); higher = more soluble protein in presence of ATP
How it was run: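 Eight concentrations, 0.1 to 10 mM, were tested on Jurkat crude lysate for 10 min at room temperature and then 3 min at 37 °C, in three independent experiments. The lysate was solubilised with 0.8% NP40 and benzonase, ultracentrifuged, and the supernatant TMT-labelled for LC-MS/MS. Each value is the fold change against the detergent-processed vehicle in its own replicate, from vsn-normalised intensities.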

Protein sequences, listed by entry. Tags and fused reporters are not part of them. Lines headed by an entry give the natural chain unless they say otherwise; changes in a name come on top.
UniProt Q16829: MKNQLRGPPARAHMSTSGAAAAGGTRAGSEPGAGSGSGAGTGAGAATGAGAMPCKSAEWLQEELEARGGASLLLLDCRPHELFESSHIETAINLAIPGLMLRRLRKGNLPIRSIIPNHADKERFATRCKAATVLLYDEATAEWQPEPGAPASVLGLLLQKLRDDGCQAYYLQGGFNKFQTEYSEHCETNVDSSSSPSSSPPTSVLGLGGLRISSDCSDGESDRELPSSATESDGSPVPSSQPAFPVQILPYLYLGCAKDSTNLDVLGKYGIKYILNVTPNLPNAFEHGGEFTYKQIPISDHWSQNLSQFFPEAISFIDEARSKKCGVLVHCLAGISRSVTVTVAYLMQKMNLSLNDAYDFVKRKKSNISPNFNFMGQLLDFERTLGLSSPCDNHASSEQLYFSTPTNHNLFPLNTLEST
UniProt Q14684: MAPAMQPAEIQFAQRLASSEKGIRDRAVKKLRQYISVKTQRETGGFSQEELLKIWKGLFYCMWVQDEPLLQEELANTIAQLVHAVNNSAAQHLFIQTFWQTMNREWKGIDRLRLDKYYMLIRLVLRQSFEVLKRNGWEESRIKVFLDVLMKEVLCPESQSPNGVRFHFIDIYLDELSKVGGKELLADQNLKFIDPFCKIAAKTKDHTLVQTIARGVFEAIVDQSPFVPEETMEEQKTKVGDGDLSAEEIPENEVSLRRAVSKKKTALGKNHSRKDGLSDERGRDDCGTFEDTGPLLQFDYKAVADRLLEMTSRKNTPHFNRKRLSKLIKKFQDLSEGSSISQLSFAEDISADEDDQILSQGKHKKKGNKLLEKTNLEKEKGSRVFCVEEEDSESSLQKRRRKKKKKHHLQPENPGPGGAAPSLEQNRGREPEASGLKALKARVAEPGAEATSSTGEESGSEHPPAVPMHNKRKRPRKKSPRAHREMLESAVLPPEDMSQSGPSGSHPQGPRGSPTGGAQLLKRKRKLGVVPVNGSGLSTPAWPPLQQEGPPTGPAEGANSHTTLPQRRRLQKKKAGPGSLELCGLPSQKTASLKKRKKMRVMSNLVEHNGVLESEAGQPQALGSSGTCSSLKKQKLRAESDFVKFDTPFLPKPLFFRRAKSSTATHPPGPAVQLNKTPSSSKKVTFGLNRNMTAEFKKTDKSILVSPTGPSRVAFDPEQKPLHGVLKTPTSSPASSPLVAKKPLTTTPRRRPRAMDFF
UniProt Q16537, whole entry: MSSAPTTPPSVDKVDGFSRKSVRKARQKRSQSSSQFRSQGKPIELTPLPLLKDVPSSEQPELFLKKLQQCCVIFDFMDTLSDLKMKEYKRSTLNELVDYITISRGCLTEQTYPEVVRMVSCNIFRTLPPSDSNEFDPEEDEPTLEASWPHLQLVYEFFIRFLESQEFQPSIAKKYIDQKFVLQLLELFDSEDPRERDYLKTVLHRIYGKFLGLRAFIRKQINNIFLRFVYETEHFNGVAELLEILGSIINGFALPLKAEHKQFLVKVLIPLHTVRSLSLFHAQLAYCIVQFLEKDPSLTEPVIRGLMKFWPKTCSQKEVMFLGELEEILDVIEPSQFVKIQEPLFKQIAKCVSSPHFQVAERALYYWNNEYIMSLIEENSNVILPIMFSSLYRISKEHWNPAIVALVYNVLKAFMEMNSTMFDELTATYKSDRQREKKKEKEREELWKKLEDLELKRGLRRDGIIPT
UniProt Q14240, whole entry: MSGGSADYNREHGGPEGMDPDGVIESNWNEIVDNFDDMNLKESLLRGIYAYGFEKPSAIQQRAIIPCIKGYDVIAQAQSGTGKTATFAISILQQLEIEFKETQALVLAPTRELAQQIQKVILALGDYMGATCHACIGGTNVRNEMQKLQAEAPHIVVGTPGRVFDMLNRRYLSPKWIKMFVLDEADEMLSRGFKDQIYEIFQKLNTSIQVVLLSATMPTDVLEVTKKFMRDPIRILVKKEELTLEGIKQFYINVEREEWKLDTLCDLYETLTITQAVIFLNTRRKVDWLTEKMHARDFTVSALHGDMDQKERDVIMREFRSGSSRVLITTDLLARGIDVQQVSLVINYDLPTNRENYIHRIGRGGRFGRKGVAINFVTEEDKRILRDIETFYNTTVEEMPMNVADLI
UniProt Q16576, whole entry: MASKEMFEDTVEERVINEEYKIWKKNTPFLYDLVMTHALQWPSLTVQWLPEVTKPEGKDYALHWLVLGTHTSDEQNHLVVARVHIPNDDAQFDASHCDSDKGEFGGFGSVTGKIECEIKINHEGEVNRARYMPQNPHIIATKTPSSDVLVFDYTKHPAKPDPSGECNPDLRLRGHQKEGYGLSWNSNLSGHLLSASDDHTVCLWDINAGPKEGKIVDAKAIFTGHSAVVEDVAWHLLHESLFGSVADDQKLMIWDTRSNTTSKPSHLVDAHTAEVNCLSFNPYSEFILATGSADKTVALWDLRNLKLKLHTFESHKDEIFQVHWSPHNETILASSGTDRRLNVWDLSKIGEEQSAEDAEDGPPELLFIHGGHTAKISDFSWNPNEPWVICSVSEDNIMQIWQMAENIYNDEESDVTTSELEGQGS
UniProt Q49B96: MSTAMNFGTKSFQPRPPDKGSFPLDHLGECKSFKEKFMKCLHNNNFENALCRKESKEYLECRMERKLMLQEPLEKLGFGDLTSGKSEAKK
UniProt Q15003, whole entry: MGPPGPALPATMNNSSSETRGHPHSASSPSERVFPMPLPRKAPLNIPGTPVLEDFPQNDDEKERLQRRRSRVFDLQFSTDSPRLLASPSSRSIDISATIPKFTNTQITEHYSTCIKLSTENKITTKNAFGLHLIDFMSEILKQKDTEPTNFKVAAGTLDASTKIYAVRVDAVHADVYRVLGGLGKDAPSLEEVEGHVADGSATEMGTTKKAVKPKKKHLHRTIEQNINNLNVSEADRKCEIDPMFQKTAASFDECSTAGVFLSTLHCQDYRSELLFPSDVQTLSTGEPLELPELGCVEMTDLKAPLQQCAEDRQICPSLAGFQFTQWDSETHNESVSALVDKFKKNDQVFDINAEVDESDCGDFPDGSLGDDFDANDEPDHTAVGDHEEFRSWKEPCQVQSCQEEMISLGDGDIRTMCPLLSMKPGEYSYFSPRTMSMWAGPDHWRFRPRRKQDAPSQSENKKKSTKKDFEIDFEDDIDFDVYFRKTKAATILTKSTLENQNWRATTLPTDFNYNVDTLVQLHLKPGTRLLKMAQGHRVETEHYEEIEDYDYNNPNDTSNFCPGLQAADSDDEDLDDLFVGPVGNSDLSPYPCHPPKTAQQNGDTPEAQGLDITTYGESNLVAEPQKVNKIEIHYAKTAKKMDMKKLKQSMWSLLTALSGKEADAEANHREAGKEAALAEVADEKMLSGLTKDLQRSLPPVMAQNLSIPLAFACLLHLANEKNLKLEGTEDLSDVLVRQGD
UniProt Q15052: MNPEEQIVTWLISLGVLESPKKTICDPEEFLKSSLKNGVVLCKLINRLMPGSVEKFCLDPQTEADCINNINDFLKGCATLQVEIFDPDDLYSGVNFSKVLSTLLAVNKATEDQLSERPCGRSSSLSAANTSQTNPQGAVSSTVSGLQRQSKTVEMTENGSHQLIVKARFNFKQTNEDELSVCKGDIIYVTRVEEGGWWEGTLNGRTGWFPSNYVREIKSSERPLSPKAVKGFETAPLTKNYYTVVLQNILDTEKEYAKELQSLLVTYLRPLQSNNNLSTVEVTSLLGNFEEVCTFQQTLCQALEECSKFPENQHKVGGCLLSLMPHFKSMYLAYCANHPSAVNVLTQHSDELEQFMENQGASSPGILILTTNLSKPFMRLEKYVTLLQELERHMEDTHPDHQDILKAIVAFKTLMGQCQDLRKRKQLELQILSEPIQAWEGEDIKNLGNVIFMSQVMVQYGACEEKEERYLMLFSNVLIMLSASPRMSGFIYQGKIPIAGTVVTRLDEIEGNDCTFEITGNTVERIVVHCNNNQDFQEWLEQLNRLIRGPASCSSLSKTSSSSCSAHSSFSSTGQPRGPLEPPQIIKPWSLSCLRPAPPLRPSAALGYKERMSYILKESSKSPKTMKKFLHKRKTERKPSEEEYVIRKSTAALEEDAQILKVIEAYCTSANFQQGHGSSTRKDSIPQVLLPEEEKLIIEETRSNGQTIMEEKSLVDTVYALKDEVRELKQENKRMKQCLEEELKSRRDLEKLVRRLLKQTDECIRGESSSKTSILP
UniProt Q15022: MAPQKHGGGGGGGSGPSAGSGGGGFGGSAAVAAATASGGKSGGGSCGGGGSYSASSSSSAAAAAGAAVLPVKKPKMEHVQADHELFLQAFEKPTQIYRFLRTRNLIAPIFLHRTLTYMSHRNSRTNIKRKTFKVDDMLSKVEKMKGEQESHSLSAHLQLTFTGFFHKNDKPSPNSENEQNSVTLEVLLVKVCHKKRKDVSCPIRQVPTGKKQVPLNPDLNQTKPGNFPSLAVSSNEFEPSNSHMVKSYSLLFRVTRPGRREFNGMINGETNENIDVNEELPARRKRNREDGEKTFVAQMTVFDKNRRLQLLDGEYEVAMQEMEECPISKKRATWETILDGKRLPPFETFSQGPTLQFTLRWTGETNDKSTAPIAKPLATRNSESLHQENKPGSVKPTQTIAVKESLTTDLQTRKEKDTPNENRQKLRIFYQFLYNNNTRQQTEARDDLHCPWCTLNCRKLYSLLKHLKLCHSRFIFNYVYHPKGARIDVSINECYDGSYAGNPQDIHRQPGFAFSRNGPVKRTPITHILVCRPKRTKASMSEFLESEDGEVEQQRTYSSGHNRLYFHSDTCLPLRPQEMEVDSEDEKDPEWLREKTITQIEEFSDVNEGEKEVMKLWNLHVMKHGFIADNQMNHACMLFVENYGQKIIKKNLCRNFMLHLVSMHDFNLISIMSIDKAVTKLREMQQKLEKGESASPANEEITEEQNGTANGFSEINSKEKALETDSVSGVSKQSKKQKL
UniProt Q15024, whole entry: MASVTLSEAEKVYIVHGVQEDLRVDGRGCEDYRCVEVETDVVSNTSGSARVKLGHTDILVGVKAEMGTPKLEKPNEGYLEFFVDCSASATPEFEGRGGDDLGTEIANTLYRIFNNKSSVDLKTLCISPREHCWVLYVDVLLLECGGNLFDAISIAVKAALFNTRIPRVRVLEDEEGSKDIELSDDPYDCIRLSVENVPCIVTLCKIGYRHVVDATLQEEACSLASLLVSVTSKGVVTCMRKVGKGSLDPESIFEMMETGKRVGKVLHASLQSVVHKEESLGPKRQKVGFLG
UniProt Q2M1P5: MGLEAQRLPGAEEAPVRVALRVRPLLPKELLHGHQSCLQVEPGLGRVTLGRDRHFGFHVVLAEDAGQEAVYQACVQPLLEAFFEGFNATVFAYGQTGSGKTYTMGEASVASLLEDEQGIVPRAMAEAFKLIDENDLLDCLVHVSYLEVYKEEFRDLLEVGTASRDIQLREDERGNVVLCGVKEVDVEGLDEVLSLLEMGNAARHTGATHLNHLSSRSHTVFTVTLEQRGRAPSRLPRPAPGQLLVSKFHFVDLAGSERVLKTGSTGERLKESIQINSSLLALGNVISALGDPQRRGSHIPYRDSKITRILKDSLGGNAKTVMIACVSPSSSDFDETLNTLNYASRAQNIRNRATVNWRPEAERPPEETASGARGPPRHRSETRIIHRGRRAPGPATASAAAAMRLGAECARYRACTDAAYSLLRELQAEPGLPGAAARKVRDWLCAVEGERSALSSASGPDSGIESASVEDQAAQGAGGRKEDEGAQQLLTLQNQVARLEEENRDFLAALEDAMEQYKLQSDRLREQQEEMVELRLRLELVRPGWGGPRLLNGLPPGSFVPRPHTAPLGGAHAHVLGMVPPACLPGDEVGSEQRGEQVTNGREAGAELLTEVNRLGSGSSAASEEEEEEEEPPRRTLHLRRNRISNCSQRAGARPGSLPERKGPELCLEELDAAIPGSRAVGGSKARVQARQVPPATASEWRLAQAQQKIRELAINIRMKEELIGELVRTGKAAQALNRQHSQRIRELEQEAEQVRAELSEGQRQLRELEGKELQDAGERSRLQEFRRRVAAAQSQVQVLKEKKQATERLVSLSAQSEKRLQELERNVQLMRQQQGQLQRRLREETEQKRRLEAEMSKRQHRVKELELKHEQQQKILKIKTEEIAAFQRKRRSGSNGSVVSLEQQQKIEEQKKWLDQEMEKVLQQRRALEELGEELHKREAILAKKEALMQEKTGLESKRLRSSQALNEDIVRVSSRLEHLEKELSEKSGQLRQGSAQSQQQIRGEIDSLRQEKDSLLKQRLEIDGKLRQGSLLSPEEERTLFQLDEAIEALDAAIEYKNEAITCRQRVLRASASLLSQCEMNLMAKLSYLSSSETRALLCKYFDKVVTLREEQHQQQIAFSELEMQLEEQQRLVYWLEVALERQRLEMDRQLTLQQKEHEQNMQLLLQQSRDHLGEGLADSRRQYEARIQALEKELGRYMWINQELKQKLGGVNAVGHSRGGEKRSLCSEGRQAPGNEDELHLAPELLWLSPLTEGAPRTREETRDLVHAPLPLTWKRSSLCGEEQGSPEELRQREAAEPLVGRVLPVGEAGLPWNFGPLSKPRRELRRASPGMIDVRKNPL
UniProt Q16718, whole entry: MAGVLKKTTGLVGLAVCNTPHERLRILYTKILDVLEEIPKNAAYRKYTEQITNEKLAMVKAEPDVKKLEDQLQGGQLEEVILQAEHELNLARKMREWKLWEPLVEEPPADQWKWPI

Target	NP40-soluble protein abundance (concentration: 0.1mM)	NP40-soluble protein abundance (concentration: 0.5mM)
UniProt Q4G148 and related entries	0.924 ± 0.021	0.878 ± 0.099
UniProt Q32MZ4 and related entries	0.965 ± 0.032	0.973 ± 0.041
UniProt Q14534 and related entries	1.04 ± 0.074	1.05 ± 0.014
UBE3C (UniProt Q15386)	0.997 ± 0.097	0.989 ± 0.073
UniProt Q15154 and related entries	0.995 ± 0.04	1.01 ± 0.031
STXBP2 (UniProt Q15833)	1.01 ± 0.046	1.03 ± 0.031
PMVK (UniProt Q15126)	0.961 ± 0.021	0.942 ± 0.049
UniProt Q14978-2	0.96 ± 0.042	0.781 ± 0.035
DGUOK (UniProt Q16854)	1.05 ± 0.1	1.03 ± 0.078
UniProt Q16829 and related entries	0.982 ± 0.033	0.939 ± 0.08
EIF3A (UniProt Q14152)	0.966 ± 0.075	0.959 ± 0.087
UniProt Q16666 and related entries	1.08 ± 0.051	1.33 ± 0.051
KPNB1 (UniProt Q14974)	0.995 ± 0.026	1.008 ± 0.0084
UniProt Q14684 and related entries	1 ± 0.025	1.01 ± 0.02
NCAPD2 (UniProt Q15021)	1.02 ± 0.019	1 ± 0.041
LASP1 (UniProt Q14847)	0.974 ± 0.045	1 ± 0.061
UniProt Q15642-2|Q15642-3|Q15642-4|W4VSQ9	0.985 ± 0.084	0.979 ± 0.049
UniProt Q16537 and related entries	0.995 ± 0.054	1.02 ± 0.038
MAN2A1 (UniProt Q16706)	0.968 ± 0.067	0.949 ± 0.043
UniProt Q16851 and related entries	1.01 ± 0.047	1.02 ± 0.032
PLS1 (UniProt Q14651)	0.994 ± 0.04	0.981 ± 0.042
GAMT (UniProt Q14353)	1.08 ± 0.02	1.05 ± 0.03
E2F4 (UniProt Q16254)	0.956 ± 0.052	0.963 ± 0.078
UniProt Q15257 and related entries	0.954 ± 0.044	0.978 ± 0.0086

Target	NP40-soluble protein abundance (concentration: 0.1mM)	NP40-soluble protein abundance (concentration: 0.5mM)
TSR1 (UniProt Q2NL82)	0.934 ± 0.039	0.839 ± 0.056
UniProt Q14558-2|Q14558	0.979 ± 0.063	1.07 ± 0.055
FAM53B (UniProt Q14153)	1.02 ± 0.23	1.03 ± 0.16
UniProt Q2TAY7	1.1 ± 0.1	1.05 ± 0.042
UniProt Q15796 and related entries	1 ± 0.035	0.988 ± 0.046
UniProt Q460N5 and related entries	1.01 ± 0.047	0.999 ± 0.055
UniProt Q15018	1 ± 0.04	0.992 ± 0.051
UniProt Q15223	0.935 ± 0.032	0.953 ± 0.057
UniProt Q3V6T2 and related entries	1.01 ± 0.018	1.03 ± 0.055
ITPR3 (UniProt Q14573)	1.05 ± 0.052	1.03 ± 0.072
UAP1L1 (UniProt Q3KQV9)	1.06 ± 0.095	1.06 ± 0.094
UniProt Q14865	0.997 ± 0.072	1.02 ± 0.066
UniProt Q14693 and related entries	1.01 ± 0.095	1.03 ± 0.043
MORF4L2 (UniProt Q15014)	1.02 ± 0.039	1 ± 0.07
UniProt Q15120 and related entries	1.14 ± 0.061	1.32 ± 0.15
AP5B1 (UniProt Q2VPB7)	0.903 ± 0.025	0.904 ± 0.072
HAGH (UniProt Q16775)	0.999 ± 0.058	1.03 ± 0.029
PGGHG (UniProt Q32M88)	1 ± 0.1	0.976 ± 0.11
UniProt Q14240-2|Q14240	1.01 ± 0.078	1.18 ± 0.057
UniProt Q15262-2|Q15262-3|Q15262 and related entries	0.987 ± 0.022	0.942 ± 0.026
CLPP (UniProt Q16740)	0.983 ± 0.026	0.9671 ± 0.0077
SEC23B (UniProt Q15437)	1.07 ± 0.063	1.03 ± 0.051
TTLL12 (UniProt Q14166)	1.1 ± 0.068	1.07 ± 0.088
UniProt Q16576 and related entries	1.04 ± 0.052	1.06 ± 0.051

Target	NP40-soluble protein abundance (concentration: 0.1mM)	NP40-soluble protein abundance (concentration: 0.5mM)
HNRNPUL2 (UniProt Q1KMD3)	0.982 ± 0.074	1.03 ± 0.092
CD226 (UniProt Q15762)	0.982 ± 0.082	0.81 ± 0.062
COX19 (UniProt Q49B96)	1 ± 0.029	1.03 ± 0.099
CBX2 (UniProt Q14781)	1 ± 0.091	1.07 ± 0.1
TBCC (UniProt Q15814)	1.01 ± 0.016	0.99 ± 0.036
NSDHL (UniProt Q15738)	1.02 ± 0.065	1.02 ± 0.059
UniProt Q15811 and related entries	0.999 ± 0.029	0.983 ± 0.049
MLF2 (UniProt Q15773)	0.947 ± 0.058	0.83 ± 0.042
UniProt Q14257 and related entries	0.969 ± 0.026	0.976 ± 0.032
UniProt Q16656 and related entries	1.01 ± 0.035	0.957 ± 0.017
UniProt Q3MHD2 and related entries	1.01 ± 0.072	1.03 ± 0.052
EEA1 (UniProt Q15075)	0.966 ± 0.03	0.984 ± 0.062
CWF19L2 (UniProt Q2TBE0)	1.03 ± 0.036	1.03 ± 0.03
UniProt Q15813 and related entries	1.03 ± 0.035	1.03 ± 0.043
NPAT (UniProt Q14207)	1.01 ± 0.076	0.976 ± 0.038
GINS1 (UniProt Q14691)	0.9912 ± 0.0038	0.952 ± 0.064
UniProt Q16401 and related entries	1.02 ± 0.046	1.01 ± 0.022
UniProt Q3ZCQ8 and related entries	1.02 ± 0.067	1 ± 0.086
UniProt Q27J81 and related entries	0.986 ± 0.067	0.977 ± 0.015
MCM6 (UniProt Q14566)	1.03 ± 0.065	0.989 ± 0.04
DPYSL2 (UniProt Q16555)	1.05 ± 0.066	1.03 ± 0.073
UniProt Q15003 and related entries	0.993 ± 0.019	1.02 ± 0.063
WRN (UniProt Q14191)	1.11 ± 0.068	1.19 ± 0.058
BMS1 (UniProt Q14692)	0.956 ± 0.081	0.921 ± 0.053

Target	NP40-soluble protein abundance (concentration: 0.1mM)	NP40-soluble protein abundance (concentration: 0.5mM)
UniProt Q15043 and related entries	0.946 ± 0.12	0.95 ± 0.096
UniProt Q14980 and related entries	1.01 ± 0.058	1.17 ± 0.088
UniProt Q2M296 and related entries	1.09 ± 0.058	1.14 ± 0.2
UniProt Q15208	1.11 ± 0.038	1.1 ± 0.066
UniProt Q14789 and related entries	0.989 ± 0.014	0.998 ± 0.053
UniProt Q16512 and related entries	1.02 ± 0.052	1.03 ± 0.045
UniProt Q14156 and related entries	1.06 ± 0.077	0.983 ± 0.019
ARHGEF6 (UniProt Q15052)	0.982 ± 0.028	1.02 ± 0.035
KIF14 (UniProt Q15058)	0.924 ± 0.12	0.985 ± 0.12
NCOA2 (UniProt Q15596)	0.985 ± 0.017	1.01 ± 0.031
SUZ12 (UniProt Q15022)	1.08 ± 0.041	1.13 ± 0.044
UniProt Q15910 and related entries	1.07 ± 0.044	1.17 ± 0.06
ETFDH (UniProt Q16134)	1.07 ± 0.058	1.03 ± 0.052
BRD3 (UniProt Q15059)	0.978 ± 0.036	1.04 ± 0.029
UniProt Q15633 and related entries	0.959 ± 0.053	0.946 ± 0.033
UniProt Q16222 and related entries	1.04 ± 0.053	1.01 ± 0.056
UniProt Q14247 and related entries	0.999 ± 0.019	1.05 ± 0.064
UniProt Q15067-2	1.02 ± 0.049	0.989 ± 0.013
POLD3 (UniProt Q15054)	0.961 ± 0.065	0.992 ± 0.063
FAM50A (UniProt Q14320)	0.971 ± 0.049	0.962 ± 0.035
PPA1 (UniProt Q15181)	1.01 ± 0.065	1.04 ± 0.068
LARS2 (UniProt Q15031)	1.05 ± 0.075	1.03 ± 0.049
LGALSL (UniProt Q3ZCW2)	1.05 ± 0.068	1.08 ± 0.069
UniProt Q15390 and related entries	0.973 ± 0.053	0.954 ± 0.12

Looked up above:
NP40-soluble protein abundance (concentration: 0.1mM) with UniProt Q15208 is entered as 1.11 ± 0.038
NP40-soluble protein abundance (concentration: 0.5mM) with ETFDH (UniProt Q16134) is entered as 1.03 ± 0.052
NP40-soluble protein abundance (concentration: 0.5mM) with LARS2 (UniProt Q15031) is entered as 1.03 ± 0.049

Record cards (already shown). Order of values: NP40-soluble protein abundance (concentration: 0.1mM)	NP40-soluble protein abundance (concentration: 0.5mM)
UniProt Q14789 and related entries is listed with 0.989 ± 0.014	0.998 ± 0.053
UniProt Q14980 and related entries is listed with 1.01 ± 0.058	1.17 ± 0.088

(listing goes on)

Target	NP40-soluble protein abundance (concentration: 0.1mM)	NP40-soluble protein abundance (concentration: 0.5mM)
MORC3 (UniProt Q14149)	1.04 ± 0.05	1.06 ± 0.03
TAF7 (UniProt Q15545)	0.985 ± 0.049	0.956 ± 0.018
UniProt Q14CX7	1.06 ± 0.05	1.06 ± 0.047
UniProt Q15652 and related entries	1.009 ± 0.01	1.03 ± 0.05
EXOSC7 (UniProt Q15024)	1.09 ± 0.1	1.06 ± 0.071
UniProt Q14696	0.955 ± 0.042	1 ± 0.065
TOMM34 (UniProt Q15785)	0.946 ± 0.011	0.951 ± 0.032
UniProt Q14161-5|Q14161	0.988 ± 0.019	0.961 ± 0.012
UniProt Q15542 and related entries	1.07 ± 0.095	1.08 ± 0.07
POLA2 (UniProt Q14181)	0.999 ± 0.016	0.975 ± 0.024
UniProt Q15173 and related entries	1.12 ± 0.018	0.938 ± 0.12
TRADD (UniProt Q15628)	0.99 ± 0.041	0.9433 ± 0.0029
UniProt Q3B7J2 and related entries	0.95 ± 0.1	0.971 ± 0.042
UniProt Q2M1P5	1.1 ± 0.18	1.03 ± 0.1
EIF2B1 (UniProt Q14232)	0.9498 ± 0.008	0.947 ± 0.032
UniProt Q14554 and related entries	1.06 ± 0.026	1.05 ± 0.042
PPP1R7 (UniProt Q15435)	0.998 ± 0.038	0.98 ± 0.046
TST (UniProt Q16762)	1.04 ± 0.032	0.993 ± 0.025
UniProt Q16718 and related entries	0.889 ± 0.16	0.94 ± 0.15
TFDP1 (UniProt Q14186)	1.01 ± 0.056	1.06 ± 0.04
UniProt Q3ZAQ7 and related entries	0.936 ± 0.04	0.901 ± 0.079
NONO (UniProt Q15233)	1.05 ± 0.021	1.07 ± 0.038
ZNF638 (UniProt Q14966)	1 ± 0.018	1.04 ± 0.054
VPS26B (UniProt Q4G0F5)	1.09 ± 0.18	1.05 ± 0.13

Reference: the supplement of paper PMC6411743
